# Source: publication PMC12172489
# Sequences of proteins named here, by UniProt entry; tags and fusion partners are left off.
# UniProt P03427: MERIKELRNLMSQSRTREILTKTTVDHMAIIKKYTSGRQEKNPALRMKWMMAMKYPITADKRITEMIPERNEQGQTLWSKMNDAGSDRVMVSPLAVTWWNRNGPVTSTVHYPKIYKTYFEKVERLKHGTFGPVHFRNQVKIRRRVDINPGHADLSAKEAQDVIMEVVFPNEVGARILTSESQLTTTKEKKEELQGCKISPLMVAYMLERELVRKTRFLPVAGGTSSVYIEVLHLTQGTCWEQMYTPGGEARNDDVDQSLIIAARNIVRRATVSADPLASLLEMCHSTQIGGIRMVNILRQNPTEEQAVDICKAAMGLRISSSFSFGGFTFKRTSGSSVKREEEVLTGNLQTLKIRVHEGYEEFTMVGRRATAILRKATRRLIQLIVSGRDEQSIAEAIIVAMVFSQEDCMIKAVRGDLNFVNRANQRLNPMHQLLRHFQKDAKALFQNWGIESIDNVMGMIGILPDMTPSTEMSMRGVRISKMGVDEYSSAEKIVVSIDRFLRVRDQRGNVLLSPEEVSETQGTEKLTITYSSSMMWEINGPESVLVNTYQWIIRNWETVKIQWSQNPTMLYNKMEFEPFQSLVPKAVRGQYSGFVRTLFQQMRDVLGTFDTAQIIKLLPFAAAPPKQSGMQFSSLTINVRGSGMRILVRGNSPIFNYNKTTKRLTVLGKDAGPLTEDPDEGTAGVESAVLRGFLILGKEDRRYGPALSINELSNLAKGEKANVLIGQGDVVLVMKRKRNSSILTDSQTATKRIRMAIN
# UniProt Q32P51: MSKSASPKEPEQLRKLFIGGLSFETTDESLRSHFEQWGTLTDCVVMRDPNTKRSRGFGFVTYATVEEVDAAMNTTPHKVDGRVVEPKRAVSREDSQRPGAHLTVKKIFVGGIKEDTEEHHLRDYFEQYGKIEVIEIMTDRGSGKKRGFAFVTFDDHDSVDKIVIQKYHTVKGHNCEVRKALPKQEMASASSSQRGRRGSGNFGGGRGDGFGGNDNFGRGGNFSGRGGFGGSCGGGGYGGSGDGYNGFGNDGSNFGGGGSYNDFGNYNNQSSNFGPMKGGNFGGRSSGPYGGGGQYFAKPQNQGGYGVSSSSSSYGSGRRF
# Biological target: PB2-TAP fusion protein of influenza A/WSN/33 (WSN, H1N1) virus (influenza A/WSN/33 (WSN, H1N1) virus) (UniProt P03427)
# Assay: affinity purification with mass spectrometry
substance,measurement,value
hnRNPA1L2 (from UniProt Q32P51 1-320),binding,binds

# Results are given in words; binding and its absence hold for the method and conditions named. In cells and extracts the contact can be indirect. Here binding means that the protein was enriched with, or labelled near, the bait; the list need not be complete.
